Assay results: publication PMC10312969

By UniProt entry, the sequences of proteins in these tests, tags left out.
UniProt Q76MZ3: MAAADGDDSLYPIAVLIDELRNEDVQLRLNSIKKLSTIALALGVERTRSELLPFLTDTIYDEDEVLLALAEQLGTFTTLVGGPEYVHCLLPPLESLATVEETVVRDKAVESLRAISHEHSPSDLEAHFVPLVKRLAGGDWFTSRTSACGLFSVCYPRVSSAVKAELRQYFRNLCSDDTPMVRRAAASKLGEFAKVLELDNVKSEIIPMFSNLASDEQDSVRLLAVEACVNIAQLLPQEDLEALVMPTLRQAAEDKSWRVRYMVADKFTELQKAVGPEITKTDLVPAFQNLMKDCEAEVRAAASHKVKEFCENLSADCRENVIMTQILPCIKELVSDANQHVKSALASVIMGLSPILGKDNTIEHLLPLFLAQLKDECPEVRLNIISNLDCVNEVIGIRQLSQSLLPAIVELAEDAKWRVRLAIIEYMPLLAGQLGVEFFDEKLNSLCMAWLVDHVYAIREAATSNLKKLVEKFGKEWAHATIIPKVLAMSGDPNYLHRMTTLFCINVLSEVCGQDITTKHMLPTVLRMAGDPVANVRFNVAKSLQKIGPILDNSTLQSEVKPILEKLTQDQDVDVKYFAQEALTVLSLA

Biological target: T1, RalA^G23V constitutively active mutant ectopically expressed in liver (UniProt P11233)
T1 sequence: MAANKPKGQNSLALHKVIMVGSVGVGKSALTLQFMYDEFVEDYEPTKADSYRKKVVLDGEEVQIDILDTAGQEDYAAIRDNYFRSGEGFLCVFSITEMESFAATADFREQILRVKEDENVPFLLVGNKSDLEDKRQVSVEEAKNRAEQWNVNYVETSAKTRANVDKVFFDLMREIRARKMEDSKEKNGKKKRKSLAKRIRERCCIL
Assay: affinity purification with mass spectrometry; proteomics of proteins interacting with WT, G23V or S28N RalA ectopically expressed in liver

Substance: protein phosphatase 2A subunit A alpha (PP2Aa) of liver (from UniProt Q76MZ3 1-589)
- binding: binds

No constants are given. Whether binding was seen depends on the method and setting. In cells and extracts the contact can be indirect. These calls come from enrichment with a bait or labelling near it, and not all partners need be listed.
